Experimental data published in patent US8357375B2, “Process for the preparation and use of a bivalent vaccine against morphine-heroine addiction” (Instituto Nacional de Psiquiatria Ramon de la Fuente Muniz, priority 2004, dated 2013).
pIC50: −log10 of the molar value. Some of these results come from one statement about several compounds together.

System: anti-morphine-heroin serum antibodies
Assay: competitive immunoenzymatic ELISA for antibody specificity
Format: binding, rat
Conditions: preadsorption of antisera from hyperimmune animals; solid phase morphine-6-hemisuccinyl-BSA; read-out: competitive dose at the IC50 reference value

CC(=O)Oc1ccc2c3c1O[C@H]1[C@@H](OC(C)=O)C=C[C@H]4[C@@H](C2)N(C)CC[C@@]341 [heroin]
pIC50: 6.10 to 6.22
